## Screening data, single-dose tests

Mtb glucose medium: 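Growth of Mycobacterium tuberculosis over 3 days (7H9 medium with glucose and tyloxapol); the read-out is not stated. Tested at 50 µM. The record gives no direction; compounds that gave an IC50 in retests scored well above the rest, so higher reads as more growth inhibition. Of about 69,000 compounds tested this way, about 760 (1.1%) reached 50% or more in at least one test.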
Mtb cholesterol medium: 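Phenotypic screen: M. tuberculosis growth, cholesterol and DPPC medium, 4 days; the read-out is not stated. Compounds at 50 µM. Direction is inferred from retests: higher values go with more growth inhibition. About 69,000 compounds were tested under these conditions; 0.54% (about 370) showed 50% or more at least once.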

Values are the deposited “Percent Effect”, in %. How 0% and 100% were set is not recorded. Most values in the screen are low, and negative values occur. Compounds were drawn at random from those tested, without regard to their results. Two or more numbers in one place are separate tests of the same structure; such repeats can differ widely.

{"structure": "CS(=O)(=O)N1CCC(CNC(=O)c2cnccn2)CC1", "Mtb glucose medium": -25.39, "Mtb cholesterol medium": -14.67}
{"structure": "Cc1cc(C(=O)N2CCC(CCn3cccn3)CC2)c(C)o1", "Mtb glucose medium": -4.009, "Mtb cholesterol medium": 11.39}
{"structure": "Cc1cnn(CCNCc2ccccc2Oc2cccnc2)c1", "Mtb glucose medium": -62.36, "Mtb cholesterol medium": -26}
{"structure": "O=C(CCc1cc2n(n1)CCCNC2)N1CCSCC1", "Mtb glucose medium": 21.83, "Mtb cholesterol medium": -6.302}
{"structure": "CCOC(=O)CCN(Cc1cccnc1)C(=O)c1cc(Cl)c[nH]1", "Mtb glucose medium": 0.005391, "Mtb cholesterol medium": -1.371}
{"structure": "CN(C)CCOCC1CN(Cc2cccs2)Cc2ccnn2C1.O=C(O)C(F)(F)F.O=C(O)C(F)(F)F.O=C(O)C(F)(F)F", "stereo": "centres unmarked", "Mtb glucose medium": -30.23, "Mtb cholesterol medium": -27.81}
{"structure": "CSc1nnc(CC2CCN(C(=O)COc3cccnc3)CC2)n1C", "Mtb glucose medium": 17.55, "Mtb cholesterol medium": 4.172}
{"structure": "Cc1n[nH]c(C)c1CN(C)C(C(=O)O)c1c(F)cccc1OC(C)C", "stereo": "centres unmarked", "Mtb glucose medium": "-8.309 and 36.81", "Mtb cholesterol medium": -3.033}
{"structure": "CCN(CC)C(=O)CNS(=O)(=O)c1cc(Br)ccc1F", "Mtb glucose medium": -11.9, "Mtb cholesterol medium": -32.51}
{"structure": "N#CCCN(CCC#N)C(=O)c1ccc(OCC2CC2)cc1", "Mtb glucose medium": -9.059, "Mtb cholesterol medium": "-10.37 and -8.103"}
{"structure": "O=C(Nc1cnc2n1CCCC2)C1CCCN1C1CCNCC1", "stereo": "centres unmarked", "Mtb glucose medium": -35.9, "Mtb cholesterol medium": -32.92}
{"structure": "Cc1ccc(NC2CCN(C(=O)c3c(C)nn(C)c3Cl)CC2)nn1", "Mtb glucose medium": -2.137, "Mtb cholesterol medium": 4.812}
{"structure": "COc1ccnc(N(C)Cc2csc(C)n2)n1", "Mtb glucose medium": "-0.7961 and 8.353", "Mtb cholesterol medium": -0.7817}
{"structure": "CCC(CC)NC(=O)c1cccnc1N1CCCC1c1ccccn1", "stereo": "centres unmarked", "Mtb glucose medium": -32.45, "Mtb cholesterol medium": -29.58}
{"structure": "COc1cccc(CNC(=O)C(C)N2CC(n3nc(C)cc3C)C2)c1", "stereo": "centres unmarked", "Mtb glucose medium": "-10.23 and 4.149", "Mtb cholesterol medium": 9.879}
{"structure": "Cc1cc(=O)n(CCNS(=O)(=O)c2cccc(C(F)(F)F)c2)cn1", "Mtb glucose medium": -16.78, "Mtb cholesterol medium": 4.598}
{"structure": "COCCN(CCOC)Cc1c(C)nc2ccccc2c1O", "Mtb glucose medium": -20.09, "Mtb cholesterol medium": -17.96}
{"structure": "c1ccc(C2CCCN2Cc2nnnn2C2CC2)cc1", "stereo": "centres unmarked", "Mtb glucose medium": "5.471 and 7.358", "Mtb cholesterol medium": -6.285}
{"structure": "O=C(O)C(F)(F)F.O=C(O)C(F)(F)F.[H][C@@]12COC[C@]1(COc1cccnc1)CN(C1CCOCC1)C2", "Mtb glucose medium": -9.681, "Mtb cholesterol medium": -21.09}
{"structure": "CC(C)c1cc(C2CCN(C(=O)Cn3cncn3)CC2)[nH]n1", "Mtb glucose medium": -56.86, "Mtb cholesterol medium": -69.81}
{"structure": "Cc1ncsc1CCC(=O)NCc1csc(N(C)C)n1", "Mtb glucose medium": 1.181, "Mtb cholesterol medium": -17.47}
{"structure": "O=C(O)C(F)(F)F.[H][C@@]12CN(Cc3ccc4c(c3)OCO4)C[C@@H](C(=O)NC(C)C)[C@]1([H])CCO2", "Mtb glucose medium": "-6.01 and -29.21", "Mtb cholesterol medium": -8.199}
{"structure": "COc1ccccc1OCC(=O)NCC(C)(O)c1ccccc1", "stereo": "centres unmarked", "Mtb glucose medium": -30.5, "Mtb cholesterol medium": -16.18}
{"structure": "CSc1ncccc1C(=O)N1CCC(c2nc3c(C)cccc3[nH]2)CC1", "Mtb glucose medium": -15.14, "Mtb cholesterol medium": -6.122}
{"structure": "Cc1ccc(F)c(NC(=O)CCC(=O)N(C)Cc2cc(C3CC3)[nH]n2)c1", "Mtb glucose medium": "5.089 and -6.359", "Mtb cholesterol medium": -2.575}
{"structure": "CCc1n[nH]c(C2CN(C(=O)c3ccc4c(c3)COC4)CCO2)n1", "stereo": "centres unmarked", "Mtb glucose medium": -22.92, "Mtb cholesterol medium": -15.89}
{"structure": "Cc1cc(C)n(CC2CN(Cc3cccnc3)CCO2)n1", "stereo": "centres unmarked", "Mtb glucose medium": 5.246, "Mtb cholesterol medium": 6.624}
{"structure": "CC(C)NC(=O)[C@@H]1C[C@@H](N)CN1C(=O)CCSCc1ccccc1", "Mtb glucose medium": -16.57, "Mtb cholesterol medium": -22.3}
{"structure": "CSCc1noc(-c2nc3c([nH]2)CCCNC3=O)n1", "Mtb glucose medium": -5.261, "Mtb cholesterol medium": -17.03}
{"structure": "COc1cc(NC2CCS(=O)(=O)C2)ncn1", "stereo": "centres unmarked", "Mtb glucose medium": -20.84, "Mtb cholesterol medium": 10.48}
{"structure": "Cc1noc(Cl)c1CCC(=O)N1CCN(c2ncccn2)CC1", "Mtb glucose medium": -0.3254, "Mtb cholesterol medium": -7.371}
{"structure": "COc1ccc2c(c1)CC(NCc1cccc(OCC(N)=O)c1)CC2", "stereo": "centres unmarked", "Mtb glucose medium": -4.85, "Mtb cholesterol medium": 2.887}
{"structure": "COc1ccnc(CN2CC(=O)N(c3ccc(C)cc3)CC2C)c1OC", "stereo": "centres unmarked", "Mtb glucose medium": -4.859, "Mtb cholesterol medium": -25.85}
{"structure": "CN(Cc1cccc(OC(F)(F)F)c1)C(=O)c1cnsn1", "Mtb glucose medium": 35.56, "Mtb cholesterol medium": 50.44}
{"structure": "COc1cc(CNc2cnn(C)c2)cc2c1OCCO2", "Mtb glucose medium": -31.67, "Mtb cholesterol medium": -4.756}
{"structure": "COc1cccc(CN2CCc3nc4ccsc4c(=O)n3CC2)c1.Cl", "Mtb glucose medium": -33.06, "Mtb cholesterol medium": -15.37}

Once more, the final 4:

| structure | Mtb glucose medium | Mtb cholesterol medium |
|---|---|---|
| `COc1ccnc(CN2CC(=O)N(c3ccc(C)cc3)CC2C)c1OC` (centres unmarked) | -4.859% | -25.85% |
| `CN(Cc1cccc(OC(F)(F)F)c1)C(=O)c1cnsn1` | 35.56% | 50.44% |
| `COc1cc(CNc2cnn(C)c2)cc2c1OCCO2` | -31.67% | -4.756% |
| `COc1cccc(CN2CCc3nc4ccsc4c(=O)n3CC2)c1.Cl` | -33.06% | -15.37% |

From ChEMBL document CHEMBL3988442, “University of Dundee, Small-Polar-MMV Screening Library” (2021).